Results on one compound are retold here after paper PMC7179445, “Anticancer Activities of Newly Synthesized Chiral Macrocyclic Heptapeptide Candidates” (Molecules, 2020).

One assay has as its system HepG2 cells. The assay is described as follows: cells. In kind it is cell-based. The following applies: Homo sapiens; hepatocellular cancer cell line HepG2; MTT assay, RPMI 1640, 72 h incubation, absorbance 570 nm; mean ± SD, triplicates; read-out: IC50 (compound concentration required to inhibit the cell viability by 50%), HepG-2. The procedure:
(§1) The cytotoxic effects of the prepared compounds on MCF-7 and HepG2 cells were investigated with the help of standard MTT assay. […] Plates were then further incubated for 72 h. Afterwards, 20 μL of MTT (5 mg/mL in PBS) were pipetted to the wells and incubated for another 4 h. The medium was then aspirated and 100 μL DMSO were added/well. Absorbance was read using a microplate reader at 570 nm. IC50 values, used to compare compound toxicity with control cells, were obtained from linear regression of the dose–response curve using Origin® 6.1 software (OriginLab Corporation, Northampton, MA, USA). Experiments were performed in triplicates, and tamoxifen and cisplatin were used as positive control. Data were represented as mean ± SD.

For a further assay, the system named is MCF-7 cells. The assay is described as follows: cells. The following applies: Homo sapiens, MCF7; breast cancer cell line MCF-7; MTT assay, RPMI 1640, 72 h incubation, absorbance 570 nm; mean ± SD, triplicates; read-out: IC50 (compound concentration required to inhibit the cell viability by 50%), MCF-7. In kind it is cell-based. The procedure: as §1

As to `CC/C(=C(\c1ccccc1)c1ccc(OCCN(C)C)cc1)c1ccccc1` [Tamoxifen, reference compound], the IC50 worked out at 29.3 ± 1.15 µM in the assay on HepG2 cells and 22.4 ± 2.41 µM in the assay on MCF-7 cells.
